Test results from PMC12350179.
Results are given in words; binding and its absence hold for the method and conditions named. In cells and extracts the contact can be indirect. Some binding calls cover weakened binding; strength is not graded here. Sequences can lack the tags named with a protein.

Amino acid sequences for entries named in this document (tags omitted). A change or cut given only in a name is not applied to a line headed by its entry.
UniProt Q13283: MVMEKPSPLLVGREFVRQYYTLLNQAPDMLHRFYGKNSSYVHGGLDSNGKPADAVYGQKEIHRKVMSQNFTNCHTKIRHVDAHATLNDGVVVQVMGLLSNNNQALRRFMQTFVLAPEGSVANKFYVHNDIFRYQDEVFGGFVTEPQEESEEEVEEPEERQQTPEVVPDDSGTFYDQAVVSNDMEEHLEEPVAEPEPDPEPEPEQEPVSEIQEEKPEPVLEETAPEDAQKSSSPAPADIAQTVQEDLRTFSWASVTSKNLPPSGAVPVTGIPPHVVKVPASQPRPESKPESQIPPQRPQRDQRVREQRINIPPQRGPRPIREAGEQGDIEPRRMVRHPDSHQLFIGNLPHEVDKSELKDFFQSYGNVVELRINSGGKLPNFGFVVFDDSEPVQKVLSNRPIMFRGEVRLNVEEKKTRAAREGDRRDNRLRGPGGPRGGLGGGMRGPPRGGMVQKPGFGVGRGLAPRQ

What was measured:
[1] = target: T1, 3×Flag-NCOA7 (human) (UniProt Q8NI08); test: co-IP; HEK293T cells co-transfected with 4 µg of each plasmid, lysed after 48 h, Flag beads used for the immunoprecipitation, SDS-PAGE and blot
T1 sequence: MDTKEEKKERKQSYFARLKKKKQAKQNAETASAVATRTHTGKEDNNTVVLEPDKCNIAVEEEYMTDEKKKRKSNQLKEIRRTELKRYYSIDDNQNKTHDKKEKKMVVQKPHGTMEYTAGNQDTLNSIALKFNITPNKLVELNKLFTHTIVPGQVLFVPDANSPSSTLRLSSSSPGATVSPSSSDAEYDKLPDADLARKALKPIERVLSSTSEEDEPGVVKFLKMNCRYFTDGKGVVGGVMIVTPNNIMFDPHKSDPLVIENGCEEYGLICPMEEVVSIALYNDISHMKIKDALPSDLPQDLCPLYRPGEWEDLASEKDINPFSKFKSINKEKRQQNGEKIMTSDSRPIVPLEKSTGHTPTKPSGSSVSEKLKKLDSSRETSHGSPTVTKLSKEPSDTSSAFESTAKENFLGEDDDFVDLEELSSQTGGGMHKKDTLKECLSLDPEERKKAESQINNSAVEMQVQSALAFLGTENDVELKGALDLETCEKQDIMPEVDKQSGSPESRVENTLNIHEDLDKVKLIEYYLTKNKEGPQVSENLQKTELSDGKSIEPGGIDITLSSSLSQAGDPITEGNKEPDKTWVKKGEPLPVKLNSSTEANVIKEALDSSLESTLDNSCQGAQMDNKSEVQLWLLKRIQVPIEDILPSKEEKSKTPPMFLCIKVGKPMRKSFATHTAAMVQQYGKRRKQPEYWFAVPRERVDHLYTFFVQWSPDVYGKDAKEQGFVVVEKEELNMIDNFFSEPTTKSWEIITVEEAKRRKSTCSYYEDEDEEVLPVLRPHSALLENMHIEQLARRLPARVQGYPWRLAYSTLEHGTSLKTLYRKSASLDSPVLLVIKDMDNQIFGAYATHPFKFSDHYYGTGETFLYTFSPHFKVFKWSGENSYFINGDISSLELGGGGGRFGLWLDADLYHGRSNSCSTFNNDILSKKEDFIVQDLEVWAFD

[2] = target: T2, Flag-NCOA7-ΔTLDc (lacking amino acids 780–942) (human) (UniProt Q8NI08); test: as above
T2 sequence: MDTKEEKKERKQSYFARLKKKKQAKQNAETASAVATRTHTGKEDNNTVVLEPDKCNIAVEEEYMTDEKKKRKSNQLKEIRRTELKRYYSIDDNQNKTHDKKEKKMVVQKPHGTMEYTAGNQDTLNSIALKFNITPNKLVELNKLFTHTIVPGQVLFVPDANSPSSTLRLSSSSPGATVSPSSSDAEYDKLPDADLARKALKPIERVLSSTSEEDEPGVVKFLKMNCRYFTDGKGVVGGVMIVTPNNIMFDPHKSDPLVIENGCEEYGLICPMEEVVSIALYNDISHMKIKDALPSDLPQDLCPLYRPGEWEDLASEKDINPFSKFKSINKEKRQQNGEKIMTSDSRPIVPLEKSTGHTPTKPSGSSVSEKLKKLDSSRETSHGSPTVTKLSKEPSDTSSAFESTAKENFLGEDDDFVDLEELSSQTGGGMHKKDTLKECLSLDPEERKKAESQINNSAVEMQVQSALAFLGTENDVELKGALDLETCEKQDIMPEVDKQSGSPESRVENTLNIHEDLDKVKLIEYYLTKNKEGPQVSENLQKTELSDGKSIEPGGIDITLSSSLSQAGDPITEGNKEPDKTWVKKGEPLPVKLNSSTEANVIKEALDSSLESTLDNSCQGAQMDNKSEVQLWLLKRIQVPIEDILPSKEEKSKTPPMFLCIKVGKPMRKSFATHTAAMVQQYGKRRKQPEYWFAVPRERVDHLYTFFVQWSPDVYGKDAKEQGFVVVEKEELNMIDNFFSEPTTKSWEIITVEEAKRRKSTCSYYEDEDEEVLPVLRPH

Row | Substance | binding [1] | binding [2]
1 | HA-G3BP1-ΔNTF2L (lacking amino acids 1–139) (from UniProt Q13283 140-466) (domain or fragment) | no binding | 
2 | HA–G3BP1 (from UniProt Q13283 1-466) | binds | binds
